According to patent publication US20120088288A1:
No constants are given. Whether binding was seen depends on the method and setting. Some binding calls cover weakened binding; strength is not graded here.

Target: T1, TY145 subtilase (Bacillus sp. TY145)
T1 sequence: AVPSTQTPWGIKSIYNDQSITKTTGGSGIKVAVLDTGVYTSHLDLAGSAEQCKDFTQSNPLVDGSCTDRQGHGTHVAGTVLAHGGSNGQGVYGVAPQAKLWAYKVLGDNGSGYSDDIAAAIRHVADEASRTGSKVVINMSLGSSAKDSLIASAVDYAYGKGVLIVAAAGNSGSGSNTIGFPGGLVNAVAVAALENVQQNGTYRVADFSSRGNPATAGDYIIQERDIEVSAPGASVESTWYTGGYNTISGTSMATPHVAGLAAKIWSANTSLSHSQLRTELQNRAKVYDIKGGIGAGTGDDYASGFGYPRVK
Assay: X-ray crystal structure of the complex

B1: CI2 inhibitor (protein)
chain: ATEWPELVGKSVEEAKKVILQDKPEAQIIVLPVGTIVTMEYRIDRVRLFVDKLDNIAEVPRVG
  binding: binds
